Experimental data as given in US20180280305A1 (Bayer HealthCare LLC, priority 2015, published 2018).

Experiments:
[1] = cited from earlier work
[2] = 317 mg of naproxen sodium

Row | Structure (SMILES) | dose up to which AUC for single doses is reasonably linear [1] | expected plasma level from linear pharmacokinetics [2]
1 | COc1ccc2cc(C(C)C(=O)O)ccc2c1 (centres unmarked) [naproxen, 2-(6-methoxynaphthalen-2-yl) propanoic acid] | up to 500 mg | 
2 | COc1ccc2cc([C@H](C)C(=O)O)ccc2c1 [naproxen sodium] |  | 43 µg/mL
